According to patent US20150374844A1 (UNIVERSITY OF PENNSYLVANIA, priority 2013, published 2015):

Assay: peptide synthesis
Conditions: conjugation step, uv quantified

Work on “WSDLAQALSDLAQALSDLAQALSDLAQAGGC-OS1 conjugate” yielded a conjugation yield of 12.62%.
